Results taken from the supplement of paper PMC10849652.
The list shows a part of the results.

Protein sequences, listed by entry. Tags and fused reporters are not part of them. Lines headed by an entry give the natural chain unless they say otherwise; changes in a name come on top.
UniProt P30405: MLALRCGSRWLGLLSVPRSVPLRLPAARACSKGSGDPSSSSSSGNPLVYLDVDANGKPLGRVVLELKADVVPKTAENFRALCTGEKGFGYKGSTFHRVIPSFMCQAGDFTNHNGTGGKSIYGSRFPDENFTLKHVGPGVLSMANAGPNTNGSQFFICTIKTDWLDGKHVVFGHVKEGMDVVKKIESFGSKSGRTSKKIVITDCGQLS
UniProt Q6P1K2: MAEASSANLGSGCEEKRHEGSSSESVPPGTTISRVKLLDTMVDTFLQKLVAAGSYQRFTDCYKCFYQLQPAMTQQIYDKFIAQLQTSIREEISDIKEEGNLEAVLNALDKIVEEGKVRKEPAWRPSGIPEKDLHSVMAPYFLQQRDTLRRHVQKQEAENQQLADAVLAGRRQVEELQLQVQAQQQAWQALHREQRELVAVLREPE
UniProt P16435: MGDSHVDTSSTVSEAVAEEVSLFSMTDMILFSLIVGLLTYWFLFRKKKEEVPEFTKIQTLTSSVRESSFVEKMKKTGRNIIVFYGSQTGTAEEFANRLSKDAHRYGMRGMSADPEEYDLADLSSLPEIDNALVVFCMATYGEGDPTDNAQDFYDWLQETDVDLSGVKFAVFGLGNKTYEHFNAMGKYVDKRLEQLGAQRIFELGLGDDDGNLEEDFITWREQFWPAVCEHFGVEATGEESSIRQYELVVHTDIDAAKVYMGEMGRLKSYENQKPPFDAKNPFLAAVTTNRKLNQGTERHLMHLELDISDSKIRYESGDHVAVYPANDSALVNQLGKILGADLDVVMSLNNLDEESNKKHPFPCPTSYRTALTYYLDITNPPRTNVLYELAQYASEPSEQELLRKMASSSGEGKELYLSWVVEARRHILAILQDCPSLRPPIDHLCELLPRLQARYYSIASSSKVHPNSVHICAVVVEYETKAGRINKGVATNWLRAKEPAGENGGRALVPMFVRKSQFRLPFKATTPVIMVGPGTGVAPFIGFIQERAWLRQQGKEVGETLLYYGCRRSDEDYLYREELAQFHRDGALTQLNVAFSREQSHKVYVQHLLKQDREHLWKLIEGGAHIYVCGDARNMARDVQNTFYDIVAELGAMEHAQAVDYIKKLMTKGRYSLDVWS
UniProt Q8N490: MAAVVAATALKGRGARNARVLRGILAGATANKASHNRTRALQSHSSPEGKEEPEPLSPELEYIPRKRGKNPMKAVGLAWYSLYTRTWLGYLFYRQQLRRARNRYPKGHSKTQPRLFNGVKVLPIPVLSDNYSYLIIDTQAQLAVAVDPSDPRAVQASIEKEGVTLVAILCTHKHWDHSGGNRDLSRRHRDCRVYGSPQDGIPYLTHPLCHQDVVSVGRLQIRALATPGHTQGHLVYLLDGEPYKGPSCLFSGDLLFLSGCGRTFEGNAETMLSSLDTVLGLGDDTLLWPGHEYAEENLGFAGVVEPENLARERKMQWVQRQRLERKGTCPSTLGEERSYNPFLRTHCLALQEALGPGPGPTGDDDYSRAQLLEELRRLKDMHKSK
UniProt Q6PFW1: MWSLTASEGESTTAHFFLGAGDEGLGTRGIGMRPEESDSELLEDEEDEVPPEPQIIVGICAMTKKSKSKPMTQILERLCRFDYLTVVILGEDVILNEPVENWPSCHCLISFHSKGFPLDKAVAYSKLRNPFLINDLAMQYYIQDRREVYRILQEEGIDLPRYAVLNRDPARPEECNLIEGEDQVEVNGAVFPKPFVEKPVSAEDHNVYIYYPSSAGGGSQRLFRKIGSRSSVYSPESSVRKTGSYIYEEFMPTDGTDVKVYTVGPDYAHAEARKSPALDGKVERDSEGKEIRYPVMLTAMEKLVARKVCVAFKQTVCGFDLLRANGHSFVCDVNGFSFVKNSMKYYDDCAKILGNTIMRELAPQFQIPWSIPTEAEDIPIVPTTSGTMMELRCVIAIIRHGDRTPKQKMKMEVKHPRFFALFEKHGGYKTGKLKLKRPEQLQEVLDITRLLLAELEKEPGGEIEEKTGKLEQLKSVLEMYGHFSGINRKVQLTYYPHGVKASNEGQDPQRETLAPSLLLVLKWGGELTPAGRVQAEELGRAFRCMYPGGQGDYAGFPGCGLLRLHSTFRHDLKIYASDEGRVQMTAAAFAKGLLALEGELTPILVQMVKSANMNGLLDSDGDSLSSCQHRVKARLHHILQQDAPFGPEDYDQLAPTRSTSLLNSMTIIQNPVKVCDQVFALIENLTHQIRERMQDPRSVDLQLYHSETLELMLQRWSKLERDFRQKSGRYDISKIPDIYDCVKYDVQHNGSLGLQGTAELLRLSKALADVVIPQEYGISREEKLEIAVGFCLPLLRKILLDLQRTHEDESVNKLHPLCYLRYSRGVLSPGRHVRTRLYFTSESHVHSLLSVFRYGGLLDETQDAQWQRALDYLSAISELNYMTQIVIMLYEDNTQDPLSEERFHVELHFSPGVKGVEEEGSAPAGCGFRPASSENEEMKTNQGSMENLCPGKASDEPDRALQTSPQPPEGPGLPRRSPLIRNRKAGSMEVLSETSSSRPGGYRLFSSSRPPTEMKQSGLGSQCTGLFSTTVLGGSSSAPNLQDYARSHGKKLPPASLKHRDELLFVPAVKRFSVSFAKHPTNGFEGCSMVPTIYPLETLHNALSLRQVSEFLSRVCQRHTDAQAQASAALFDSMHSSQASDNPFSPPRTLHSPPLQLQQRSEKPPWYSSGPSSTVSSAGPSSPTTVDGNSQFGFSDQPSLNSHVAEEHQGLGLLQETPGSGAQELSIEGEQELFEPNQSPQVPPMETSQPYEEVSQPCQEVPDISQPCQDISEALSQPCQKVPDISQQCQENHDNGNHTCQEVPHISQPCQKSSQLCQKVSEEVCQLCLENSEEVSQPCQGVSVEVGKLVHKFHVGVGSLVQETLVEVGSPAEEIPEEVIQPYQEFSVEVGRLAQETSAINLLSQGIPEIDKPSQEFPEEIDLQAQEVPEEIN
UniProt Q9UHN1: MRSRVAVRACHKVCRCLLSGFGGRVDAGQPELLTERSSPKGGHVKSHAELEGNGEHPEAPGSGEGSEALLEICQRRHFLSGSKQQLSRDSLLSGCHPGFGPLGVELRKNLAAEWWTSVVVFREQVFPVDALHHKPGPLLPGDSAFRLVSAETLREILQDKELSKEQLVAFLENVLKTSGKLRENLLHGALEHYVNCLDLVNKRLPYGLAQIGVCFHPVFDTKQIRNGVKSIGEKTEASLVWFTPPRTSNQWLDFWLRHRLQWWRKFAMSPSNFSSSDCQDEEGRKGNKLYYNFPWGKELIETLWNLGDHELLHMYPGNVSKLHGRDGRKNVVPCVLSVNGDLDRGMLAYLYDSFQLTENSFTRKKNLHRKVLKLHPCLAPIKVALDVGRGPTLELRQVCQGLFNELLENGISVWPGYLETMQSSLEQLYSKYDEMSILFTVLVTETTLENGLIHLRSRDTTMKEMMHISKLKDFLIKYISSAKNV
UniProt Q9NVU0: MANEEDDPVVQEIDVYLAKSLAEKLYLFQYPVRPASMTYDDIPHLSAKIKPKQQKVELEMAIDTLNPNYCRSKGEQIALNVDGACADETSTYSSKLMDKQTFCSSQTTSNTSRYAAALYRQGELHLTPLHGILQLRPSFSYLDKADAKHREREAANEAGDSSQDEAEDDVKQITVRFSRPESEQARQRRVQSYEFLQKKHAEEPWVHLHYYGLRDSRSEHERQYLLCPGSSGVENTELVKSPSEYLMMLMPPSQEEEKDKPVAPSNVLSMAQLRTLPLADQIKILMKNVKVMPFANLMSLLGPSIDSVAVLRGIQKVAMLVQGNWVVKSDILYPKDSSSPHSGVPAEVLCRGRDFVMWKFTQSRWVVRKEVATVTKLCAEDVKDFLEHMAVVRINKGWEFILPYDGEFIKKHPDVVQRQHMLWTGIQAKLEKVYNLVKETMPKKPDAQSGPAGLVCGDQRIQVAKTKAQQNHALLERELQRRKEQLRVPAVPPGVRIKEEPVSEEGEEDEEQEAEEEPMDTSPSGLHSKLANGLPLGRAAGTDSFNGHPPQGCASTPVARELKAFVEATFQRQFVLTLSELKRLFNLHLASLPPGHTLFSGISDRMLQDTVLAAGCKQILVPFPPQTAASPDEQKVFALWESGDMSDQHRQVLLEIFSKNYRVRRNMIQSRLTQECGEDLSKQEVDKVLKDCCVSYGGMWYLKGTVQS
UniProt Q15165: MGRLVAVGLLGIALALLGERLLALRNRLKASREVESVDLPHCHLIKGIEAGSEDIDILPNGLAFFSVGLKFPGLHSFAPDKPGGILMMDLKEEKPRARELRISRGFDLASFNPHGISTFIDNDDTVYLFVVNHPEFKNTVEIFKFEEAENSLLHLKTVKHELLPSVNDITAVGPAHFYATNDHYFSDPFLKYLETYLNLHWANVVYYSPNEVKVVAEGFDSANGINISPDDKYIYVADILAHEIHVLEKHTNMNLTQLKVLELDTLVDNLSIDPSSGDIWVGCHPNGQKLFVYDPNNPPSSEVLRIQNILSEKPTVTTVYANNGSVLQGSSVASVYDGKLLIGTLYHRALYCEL
UniProt Q15181: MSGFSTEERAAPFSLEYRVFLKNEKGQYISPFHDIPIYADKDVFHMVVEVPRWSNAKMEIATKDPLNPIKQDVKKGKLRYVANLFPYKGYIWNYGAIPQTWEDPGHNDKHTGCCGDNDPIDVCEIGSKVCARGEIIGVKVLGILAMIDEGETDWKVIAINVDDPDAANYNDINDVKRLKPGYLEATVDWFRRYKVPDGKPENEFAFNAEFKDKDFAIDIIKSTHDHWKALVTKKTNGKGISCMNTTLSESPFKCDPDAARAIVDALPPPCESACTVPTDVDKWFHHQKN
UniProt Q8TF01: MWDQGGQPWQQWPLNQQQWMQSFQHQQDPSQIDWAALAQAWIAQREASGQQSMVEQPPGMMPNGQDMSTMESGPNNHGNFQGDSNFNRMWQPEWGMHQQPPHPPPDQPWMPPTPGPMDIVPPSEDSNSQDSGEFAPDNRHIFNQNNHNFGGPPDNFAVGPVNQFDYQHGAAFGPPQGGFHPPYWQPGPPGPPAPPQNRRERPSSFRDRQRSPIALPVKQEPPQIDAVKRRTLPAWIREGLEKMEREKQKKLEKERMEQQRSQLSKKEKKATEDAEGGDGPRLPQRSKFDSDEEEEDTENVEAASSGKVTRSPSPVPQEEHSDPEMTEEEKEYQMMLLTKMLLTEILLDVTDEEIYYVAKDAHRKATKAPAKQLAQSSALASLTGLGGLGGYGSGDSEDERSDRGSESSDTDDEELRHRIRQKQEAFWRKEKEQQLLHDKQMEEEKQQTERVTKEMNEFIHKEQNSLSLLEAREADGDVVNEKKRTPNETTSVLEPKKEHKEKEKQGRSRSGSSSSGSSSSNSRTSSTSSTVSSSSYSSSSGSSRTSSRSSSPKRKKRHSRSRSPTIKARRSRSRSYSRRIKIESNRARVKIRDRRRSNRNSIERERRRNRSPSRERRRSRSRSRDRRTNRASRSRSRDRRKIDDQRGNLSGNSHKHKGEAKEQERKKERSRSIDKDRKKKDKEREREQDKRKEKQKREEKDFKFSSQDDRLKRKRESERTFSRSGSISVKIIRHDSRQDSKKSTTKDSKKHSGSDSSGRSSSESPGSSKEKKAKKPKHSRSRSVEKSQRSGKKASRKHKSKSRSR
UniProt Q8WZA1: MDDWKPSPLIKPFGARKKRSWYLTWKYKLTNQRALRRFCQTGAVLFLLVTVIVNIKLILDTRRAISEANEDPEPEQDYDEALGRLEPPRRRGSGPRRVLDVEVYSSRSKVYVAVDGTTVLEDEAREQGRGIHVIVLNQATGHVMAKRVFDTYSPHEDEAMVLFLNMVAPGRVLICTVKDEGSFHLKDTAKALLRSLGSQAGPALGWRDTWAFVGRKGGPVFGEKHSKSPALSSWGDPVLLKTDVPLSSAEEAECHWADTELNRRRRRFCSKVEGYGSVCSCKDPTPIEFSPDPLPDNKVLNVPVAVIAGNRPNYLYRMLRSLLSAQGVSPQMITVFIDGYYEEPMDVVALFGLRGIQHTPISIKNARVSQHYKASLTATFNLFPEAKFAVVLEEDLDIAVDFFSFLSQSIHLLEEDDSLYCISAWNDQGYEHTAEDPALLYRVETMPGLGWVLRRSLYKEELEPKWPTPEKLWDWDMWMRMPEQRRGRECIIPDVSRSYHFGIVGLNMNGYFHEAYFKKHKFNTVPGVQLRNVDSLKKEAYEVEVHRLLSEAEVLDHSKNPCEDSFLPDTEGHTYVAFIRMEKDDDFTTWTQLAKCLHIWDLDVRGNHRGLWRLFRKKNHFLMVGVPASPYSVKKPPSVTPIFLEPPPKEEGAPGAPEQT
UniProt P00491: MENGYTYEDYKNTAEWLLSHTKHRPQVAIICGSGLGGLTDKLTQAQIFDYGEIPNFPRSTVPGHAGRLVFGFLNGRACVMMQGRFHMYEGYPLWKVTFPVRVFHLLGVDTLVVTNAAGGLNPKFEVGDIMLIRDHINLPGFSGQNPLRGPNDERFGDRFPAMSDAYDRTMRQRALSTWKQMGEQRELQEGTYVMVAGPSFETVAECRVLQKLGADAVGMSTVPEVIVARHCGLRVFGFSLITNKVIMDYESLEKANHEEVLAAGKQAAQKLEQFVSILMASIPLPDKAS

Tests used:
Assay in all cases: log2 fold change, soluble protein after heating vs DMSO (PISA); higher = thermal stabilisation; K562 cells, 10 uM, 30 min; active = over 0.2 and 3.5 SD of the protein, either way, in both replicates (recomputed)
[1] = compound: CC[C@@H]1C(=O)N(C)c2cnc(Nc3ccc(C(=O)NC4CCN(C)CC4)cc3OC)nc2N1C1CCCC1
Outline: (§1)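 Thermal stability values are relative to control samples and come from duplicates. They are expressed as log2 fold changes. For measurement, K562 cells (2×10^6 cells/mL) received 10 μM compound for 30 min, and aliquots were heated for 3 min over 48°C-58°C, pooled, and extracted at 4°C in PBS with 0.5% NP-40. Soluble protein, the supernatant after 21,000xg for 90 min, was quantified by TMTpro 16plex LC-MS/MS with equalised channel sums.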

volasertib = compound: CC[C@@H]1C(=O)N(C)c2cnc(Nc3ccc(C(=O)N[C@H]4CC[C@H](N5CCN(CC6CC6)CC5)CC4)cc3OC)nc2N1C(C)C [volasertib]
Outline: as §1

[2] = compound: CC[C@H](C)N1C=C(C2=C(C=C(C=C21)C3=CN=C(C=C3)N4CCNCC4)C(=O)NCC5=C(C=C(NC5=O)C)C)C
Outline: as §1

epoxomicin = compound: CC[C@H](C)[C@@H](C(=O)N[C@@H]([C@@H](C)O)C(=O)N[C@@H](CC(C)C)C(=O)[C@]1(CO1)C)NC(=O)[C@H]([C@@H](C)CC)N(C)C(=O)C [epoxomicin]
Outline: as §1

[3] = compound: CCn1c(C(=O)N(C2CC2)C2CC2)cc2c3c(ncn3C)c(Nc3cc(C)n(C)n3)nc21
Outline: as §1

[4] = compound: CCn1cc(-c2ccnc3[nH]c(-c4cccc(CN(C)C)c4)cc23)c(-c2ccc(NC(=O)N(C)C)cc2)n1
Outline: as §1

[5] = compound: CN(C)CC(=O)Nc1ccc2[nH]c(=O)c3ccccc3c2c1
Outline: as §1

rosiglitazone = compound: CN(CCOC1=CC=C(C=C1)C[C@H]2C(=O)NC(=O)S2)C3=CC=CC=N3 (racemic) [rosiglitazone]
Outline: as §1

[6] = compound: CN1C2=C(C3=C1C(=O)N(N=C3)CC4=CC(=CC=C4)N)SC(=C2)S(=O)C
Outline: as §1

[7] = compound: CN1CCC(CNc2ccc3ncc(-c4cccc(OC(F)(F)F)c4)n3n2)CC1
Outline: as §1

Measured: log2 fold change

PLS3 (UniProt P13797)
inactive: [1] 0.026 | volasertib -0.013 | [2] -0.049 | epoxomicin -0.031 | [3] -0.011 | [4] -0.019 | [5] -0.017 | rosiglitazone 0.018 | [6] -0.029 | [7] 0.037

POLR2H (UniProt P52434)
inactive: [1] 0.003 | volasertib -0.165 | [2] 0.023 | epoxomicin -0.052 | [3] -0.071 | [4] 0.015 | [5] 0.01 | rosiglitazone 0.046 | [6] -0.024 | [7] -0.083

PPIF (UniProt P30405)
inactive: [1] 0.018 | volasertib 0.027 | [2] -0.032 | epoxomicin -0.069 | [3] 0.011 | [4] -0.017 | [5] -0.02 | rosiglitazone -0.004 | [6] -0.054 | [7] 0.02

POTEF (UniProt A5A3E0)
inactive: [1] 0.04 | volasertib -0.011 | [2] -0.003 | epoxomicin -0.005 | [3] -0.023 | [4] 0.02 | [5] -0.036 | rosiglitazone 0.01 | [6] -0.062 | [7] 0.006

PLVAP (UniProt Q9BX97)
inactive: [1] 0.164 | volasertib -0.076 | [2] -0.059 | epoxomicin 0.064 | [3] -0.05 | [4] -0.218 | [5] -0.096 | rosiglitazone -0.1 | [6] 0.141 | [7] 0.122

PLP2 (UniProt Q04941)
inactive: [1] 0.082 | volasertib 0.308 | [2] -0.133 | epoxomicin -0.101 | [3] 0.173 | [4] -0.02 | [5] -0.003 | rosiglitazone 0.172 | [6] -0.017 | [7] 0.075

PMF1 (UniProt Q6P1K2)
inactive: [1] -0.007 | volasertib -0.23 | [2] -0.05 | epoxomicin 0.046 | [3] -0.159 | [4] 0.075 | [5] -0.009 | rosiglitazone 0.072 | [6] 0 | [7] -0.088

PPA2 (UniProt Q9H2U2)
inactive: [1] 0.025 | volasertib 0.092 | [2] -0.004 | epoxomicin 0.044 | [3] -0.008 | [4] -0.051 | [5] 0.011 | rosiglitazone 0.021 | [6] -0.084 | [7] -0.007

POR (UniProt P16435)
inactive: [1] 0.025 | volasertib -0.012 | [2] 0.01 | epoxomicin 0.049 | [3] -0.01 | [4] -0.058 | [5] 0.006 | rosiglitazone 0.017 | [6] -0.038 | [7] 0.09

PPM1A isoform 3 (UniProt P35813)
inactive: [1] -0.007 | volasertib 0.028 | [2] 0.021 | epoxomicin 0.048 | [3] -0.022 | [4] -0.045 | [5] 0.037 | rosiglitazone 0.052 | [6] -0.028 | [7] -0.035

PLOD1 isoform 2 (UniProt Q02809)
inactive: [1] 0.055 | volasertib 0.049 | [2] 0 | epoxomicin -0.025 | [3] 0.005 | [4] 0.056 | [5] -0.021 | rosiglitazone -0.044 | [6] 0.107 | [7] 0.148

PNKD isoform 2 (UniProt Q8N490)
inactive: [1] 0.04 | volasertib 0.037 | [2] -0.014 | epoxomicin 0.017 | [3] -0.032 | [4] -0.035 | [5] -0.003 | rosiglitazone -0.048 | [6] 0.097 | [7] -0.075

PPIP5K1 (UniProt Q6PFW1)
inactive: [1] 0.01 | volasertib -0.035 | [2] 0.007 | epoxomicin 0.002 | [3] 0.022 | [4] -0.086 | [5] -0.038 | rosiglitazone 0.018 | [6] -0.049 | [7] 0.041

POLG2 (UniProt Q9UHN1)
inactive: [1] 0.091 | volasertib -0.013 | [2] 0.014 | epoxomicin -0.025 | [3] 0.003 | [4] -0.025 | [5] -0.059 | rosiglitazone -0.037 | [6] -0.043 | [7] 0.127

PNO1 (UniProt Q9NRX1)
inactive: [1] 0.122 | volasertib 0.128 | [2] 0.059 | epoxomicin -0.027 | [3] -0.091 | [4] 0.001 | [5] 0.041 | rosiglitazone 0.026 | [6] 0.132 | [7] 0.273

PNKD isoform 3 (UniProt Q8N490)
inactive: [1] -0.057 | volasertib 0.045 | [2] -0.022 | epoxomicin 0.007 | [3] -0.003 | [4] 0.048 | [5] 0.005 | rosiglitazone -0.221 | [6] -0.014 | [7] 0.084

POLR3E (UniProt Q9NVU0)
inactive: [1] -0.013 | volasertib -0.502 | [2] 0.089 | epoxomicin -0.082 | [3] 0.042 | [4] -0.021 | [5] 0.07 | rosiglitazone 0.139 | [6] 0.084 | [7] 0.023

POLR3G (UniProt O15318)
inactive: [1] 0.061 | volasertib -0.032 | [2] 0.073 | epoxomicin 0.023 | [3] 0.028 | [4] 0.016 | [5] 0.004 | rosiglitazone -0.005 | [6] 0.033 | [7] 0.016

PON2 (UniProt Q15165)
inactive: [1] 0.003 | volasertib -0.041 | [2] 0.016 | epoxomicin 0.055 | [3] 0.006 | [4] 0.055 | [5] -0.001 | rosiglitazone -0.004 | [6] -0.071 | [7] 0.055

PPIH (UniProt O43447)
inactive: [1] -0.019 | volasertib -0.018 | [2] 0.055 | epoxomicin 0.045 | [3] -0.01 | [4] -0.008 | [5] 0.016 | rosiglitazone 0.042 | [6] -0.046 | [7] -0.041

PLXNB2 (UniProt O15031)
inactive: [1] 0.002 | volasertib -0.094 | [2] 0.047 | epoxomicin -0.01 | [3] -0.047 | [4] -0.047 | [5] 0.008 | rosiglitazone 0.049 | [6] -0.052 | [7] 0.132

Pulled one by one from above, 2 records:
PLP2 (UniProt Q04941)
inactive: [1] 0.082 | volasertib 0.308 | [2] -0.133 | epoxomicin -0.101 | [3] 0.173 | [4] -0.02 | [5] -0.003 | rosiglitazone 0.172 | [6] -0.017 | [7] 0.075

PON2 (UniProt Q15165)
inactive: [1] 0.003 | volasertib -0.041 | [2] 0.016 | epoxomicin 0.055 | [3] 0.006 | [4] 0.055 | [5] -0.001 | rosiglitazone -0.004 | [6] -0.071 | [7] 0.055

(list continues)

PNPT1 (UniProt Q8TCS8)
inactive: [1] 0.006 | volasertib -0.088 | [2] 0.076 | epoxomicin 0.062 | [3] -0.083 | [4] -0.047 | [5] 0.072 | rosiglitazone 0.045 | [6] -0.024 | [7] 0.019

POLD2 (UniProt P49005)
inactive: [1] -0.123 | volasertib -0.238 | [2] 0.043 | epoxomicin 0.125 | [3] 0.003 | [4] -0.002 | [5] 0.038 | rosiglitazone 0.05 | [6] -0.05 | [7] -0.066

PPA1 (UniProt Q15181)
inactive: [1] -0.032 | volasertib 0.055 | [2] 0.01 | epoxomicin 0.031 | [3] 0.004 | [4] -0.114 | [5] 0.007 | rosiglitazone 0.029 | [6] -0.072 | [7] 0.025

PNISR (UniProt Q8TF01)
inactive: [1] 0.008 | volasertib 0.024 | [2] -0.042 | epoxomicin -0.033 | [3] 0.024 | [4] 0.019 | [5] -0.003 | rosiglitazone 0 | [6] -0.041 | [7] -0.026

POMGNT1 isoform 2 (UniProt Q8WZA1)
inactive: [1] 0.19 | volasertib 0.11 | [2] -0.147 | epoxomicin -0.24 | [3] -0.028 | [4] 0.065 | [5] -0.079 | rosiglitazone 0.127 | [6] 0.004 | [7] -0.077

PLRG1 (UniProt O43660)
inactive: [1] 0.032 | volasertib 0.036 | [2] 0.017 | epoxomicin -0.153 | [3] 0 | [4] 0.064 | [5] -0.007 | rosiglitazone -0.011 | [6] 0.066 | [7] 0.046

PNP (UniProt P00491)
inactive: [1] 0.034 | volasertib 0.064 | [2] -0.024 | epoxomicin -0.01 | [3] 0.041 | [4] -0.006 | [5] -0.018 | rosiglitazone -0.004 | [6] -0.053 | [7] 0

PPFIA2 (UniProt O75334)
inactive: [1] 0.162 | volasertib -0.324 | [2] 0.005 | epoxomicin -0.064 | [3] -0.044 | [4] 0.104 | [5] -0.134 | rosiglitazone -0.029 | [6] 0.18 | [7] -0.028

POFUT1 (UniProt Q9H488)
inactive: [1] 0.039 | volasertib 0.038 | [2] 0 | epoxomicin 0.005 | [3] 0.041 | [4] -0.118 | [5] -0.055 | rosiglitazone -0.013 | [6] 0.004 | [7] 0.068
